The values that follow come from publication PMC8281565.

This experiment concerns the target T1, Che-1/AATF (endogenous) (human (endogenous in HCT116)) (UniProt Q9NY61).
T1 sequence: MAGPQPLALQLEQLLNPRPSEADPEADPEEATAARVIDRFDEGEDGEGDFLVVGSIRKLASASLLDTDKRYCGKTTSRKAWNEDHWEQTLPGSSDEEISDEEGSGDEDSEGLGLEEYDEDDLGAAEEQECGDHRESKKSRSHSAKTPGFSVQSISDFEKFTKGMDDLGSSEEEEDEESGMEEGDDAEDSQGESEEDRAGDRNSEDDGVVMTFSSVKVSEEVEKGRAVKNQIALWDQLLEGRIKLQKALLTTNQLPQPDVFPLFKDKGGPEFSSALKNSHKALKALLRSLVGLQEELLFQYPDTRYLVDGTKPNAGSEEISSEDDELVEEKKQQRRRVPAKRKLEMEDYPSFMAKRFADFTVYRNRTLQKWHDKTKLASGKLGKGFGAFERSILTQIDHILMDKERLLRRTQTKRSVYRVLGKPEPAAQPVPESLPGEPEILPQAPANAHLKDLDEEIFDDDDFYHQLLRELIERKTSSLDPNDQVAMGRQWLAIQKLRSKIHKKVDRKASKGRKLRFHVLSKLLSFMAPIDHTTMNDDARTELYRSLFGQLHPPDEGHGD
Briefly: co-IP; nuclear extracts of HCT116 cells, endogenous proteins; IP with Che-1 antibody (Fig. 5A) or with CK2 antibody (Supplementary Figure 4A); western blot. (In western blotting, separated proteins are transferred to a membrane and probed.)

Results are given in words; binding and its absence hold for the method and conditions named. Binding seen in cells or lysates may run through a third protein. A result given as binding can be weak or reduced; the word gives no strength.

Consider “Casein kinase II (CK2), endogenous (human (endogenous in HCT116)) (complex)”, for which the binding entry is “binds”.
